Assay results reported in the supplement of paper PMC7752906.
Where a name gives a salt, the structure may show the parent alone. Some of the results follow. Repeats in this data set agree poorly, so a single value says little.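 Wells held roughly 40 S. mansoni schistosomula, imaged in bright field over time against wells given 0.1% DMSO. The paper defines hits as drugs with a Mahalanobis distance of at least 2.47, three standard deviations above the DMSO control mean. Degeneracy is the proportion of worms classified as opaque.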

system: Schistosoma mansoni schistosomula; experiment: degeneracy (percent of somules classified as degenerate/opaque); higher = more parasite degeneration/death; extreme values may be limits of the assay; conditions: 10 µM; 72 h

| SMILES | degeneracy |
| --- | --- |
| CC(=O)SCC(Cc1ccccc1)C(=O)NCC(=O)OCc1ccccc1 (stereo not drawn) [Racecadotril] | 3.7% |
| COC(=O)C1=C(C)NC(C)=C(C(=O)OC(C)C)C1c1cccc2nonc12 (stereo not drawn) [Isradipine] | 5.88% |
| CN1CCN(c2cc3c(cc2F)c(=O)c(C(=O)O)cn3-c2ccc(F)cc2)CC1 [Difloxacin Hydrochloride] | 2.78% |
| O=C(O)CCCC[C@@H]1SC[C@@H]2NC(=O)N[C@@H]21 [Biotin] | 2.86% |
| CC(C)NCC(O)c1cc(O)cc(O)c1 (stereo not drawn) [Metaproterenol] | 3.03% |
| CCC(=O)OCC(=O)[C@@]1(OC(=O)CC)[C@@H](C)C[C@H]2[C@@H]3CCC4=CC(=O)C=C[C@]4(C)[C@@]3(Cl)[C@@H](O)C[C@@]21C [Beclomethasone Dipropionate] | 10% |
| CCN(CC)Cc1cc(Nc2ccnc3cc(Cl)ccc23)ccc1O [Amodiaquine Dihydrochloride] | 81.8% |
| O=C1CCC(N2C(=O)c3ccccc3C2=O)C(=O)N1 (stereo not drawn) [Thalidomide] | 0% |
| CC(=O)OCC1=C(C(=O)O)N2C(=O)[C@@H](NC(=O)Cc3cccs3)[C@H]2SC1 [Cephalothin Sodium] | 11.1% |
| CCOc1ccc(NC(=O)CC(C)O)cc1 (stereo not drawn) [Bucetin] | 7.69% |
| Clc1ccc(C(Cn2ccnc2)OCc2csc3c(Cl)cccc23)c(Cl)c1 (stereo not drawn) [Sertaconazole Nitrate] | 85% |
| Cc1nc2n(c(=O)c1CCN1CCC(c3noc4cc(F)ccc34)CC1)CCCC2O (stereo not drawn) [Paliperidone] | 6.67% |
| CCCCc1nc(Cl)c(CO)n1Cc1ccc(-c2ccccc2-c2nnn[nH]2)cc1 [Losartan, Losartan Potassium] | 2.94% |
| Cc1cccc(Nc2ccccc2C(=O)O)c1C [Mefenamic Acid] | 9.52% |
| O=C(O)CCNC(=O)c1ccc(/N=N/c2ccc(O)c(C(=O)O)c2)cc1 [Balsalazide] | 3.85% |
| C[C@H]1[C@H](OC(=O)CCC(=O)O)O[C@@H]2O[C@@]3(C)CC[C@H]4[C@H](C)CC[C@@H]1[C@@]24OO3 [Artesunate] | 4.76% |
| O=C1OC(CN2CCOCC2)CN1/N=C/c1ccc([N+](=O)[O-])o1 (stereo not drawn) [Furaltadone] | 12.1% |
| CC[n+]1c(-c2ccccc2)c2cc(N)ccc2c2ccc(N)cc21 [Homidium Bromide] | 100% |
| CNCCCN1c2ccccc2CCc2ccccc21 [Desipramine] | 100% |
| COC(=O)C1=C(C)NC(C)=C(C(=O)OCC(C)C)C1c1ccccc1[N+](=O)[O-] (stereo not drawn) [Nisoldipine] | 4.65% |
| COC(=O)C1=C(C)NC(C)=C(C(=O)OCCN(C)Cc2ccccc2)C1c1cccc([N+](=O)[O-])c1 (stereo not drawn) [nicardipine] | 6.9% |
| CN1CCN(c2c(F)cc3c(=O)c(C(=O)O)cn4c3c2SCC4)CC1 [Rufloxacin Hydrochloride] | 8.82% |
| Cc1ccccc1C(OCCN(C)C)c1ccccc1 (stereo not drawn) [Orphenadrine] | 15.8% |
| O=C1CCc2ccc(OCCCCN3CCN(c4cccc(Cl)c4Cl)CC3)cc2N1 [aripiprazole] | 100% |
| CN(C)CCOC(c1ccc(Cl)cc1)c1ccccn1 (stereo not drawn) [Carbinoxamine] | 9.09% |
| COc1c2ccoc2cc2oc(=O)ccc12 [Bergapten] | 18.2% |

Arranged by number of heavy atoms (rising): some entries from above.

| SMILES | degeneracy |
| --- | --- |
| CC(C)NCC(O)c1cc(O)cc(O)c1 (stereo not drawn) [Metaproterenol] | 3.03% |
| CCOc1ccc(NC(=O)CC(C)O)cc1 (stereo not drawn) [Bucetin] | 7.69% |
| Cc1cccc(Nc2ccccc2C(=O)O)c1C [Mefenamic Acid] | 9.52% |
| O=C1CCC(N2C(=O)c3ccccc3C2=O)C(=O)N1 (stereo not drawn) [Thalidomide] | 0% |
| CN(C)CCOC(c1ccc(Cl)cc1)c1ccccn1 (stereo not drawn) [Carbinoxamine] | 9.09% |
| O=C1OC(CN2CCOCC2)CN1/N=C/c1ccc([N+](=O)[O-])o1 (stereo not drawn) [Furaltadone] | 12.1% |
| CC[n+]1c(-c2ccccc2)c2cc(N)ccc2c2ccc(N)cc21 [Homidium Bromide] | 100% |
| CCN(CC)Cc1cc(Nc2ccnc3cc(Cl)ccc23)ccc1O [Amodiaquine Dihydrochloride] | 81.8% |
| CC(=O)OCC1=C(C(=O)O)N2C(=O)[C@@H](NC(=O)Cc3cccs3)[C@H]2SC1 [Cephalothin Sodium] | 11.1% |
| C[C@H]1[C@H](OC(=O)CCC(=O)O)O[C@@H]2O[C@@]3(C)CC[C@H]4[C@H](C)CC[C@@H]1[C@@]24OO3 [Artesunate] | 4.76% |
| COC(=O)C1=C(C)NC(C)=C(C(=O)OCC(C)C)C1c1ccccc1[N+](=O)[O-] (stereo not drawn) [Nisoldipine] | 4.65% |
| CN1CCN(c2cc3c(cc2F)c(=O)c(C(=O)O)cn3-c2ccc(F)cc2)CC1 [Difloxacin Hydrochloride] | 2.78% |
| CCCCc1nc(Cl)c(CO)n1Cc1ccc(-c2ccccc2-c2nnn[nH]2)cc1 [Losartan, Losartan Potassium] | 2.94% |
| Cc1nc2n(c(=O)c1CCN1CCC(c3noc4cc(F)ccc34)CC1)CCCC2O (stereo not drawn) [Paliperidone] | 6.67% |
| COC(=O)C1=C(C)NC(C)=C(C(=O)OCCN(C)Cc2ccccc2)C1c1cccc([N+](=O)[O-])c1 (stereo not drawn) [nicardipine] | 6.9% |
| CCC(=O)OCC(=O)[C@@]1(OC(=O)CC)[C@@H](C)C[C@H]2[C@@H]3CCC4=CC(=O)C=C[C@]4(C)[C@@]3(Cl)[C@@H](O)C[C@@]21C [Beclomethasone Dipropionate] | 10% |

Exported comma-delimited: part of the list above.
SMILES,degeneracy
CCN(CC)Cc1cc(Nc2ccnc3cc(Cl)ccc23)ccc1O [Amodiaquine Dihydrochloride],81.8%
COC(=O)C1=C(C)NC(C)=C(C(=O)OCCN(C)Cc2ccccc2)C1c1cccc([N+](=O)[O-])c1 (stereo not drawn) [nicardipine],6.9%

Next part

| SMILES | degeneracy |
| --- | --- |
| CCN(CC)CCOc1ccc(C(=C(Cl)c2ccccc2)c2ccccc2)cc1 [clomiphene] | 100% |
| CCCCCOC(=O)Nc1nc(=O)n([C@@H]2O[C@H](C)[C@@H](O)[C@H]2O)cc1F [Capecitabine] | 0% |
| CCCCNc1ccc(C(=O)OCCN(C)C)cc1 [Tetracaine] | 17.9% |
| CN1CCOC(c2ccccc2)c2ccccc2C1 (stereo not drawn) [Nefopam] | 2.38% |
| CN1CCC(=C2c3ccccc3CCc3sccc32)CC1 [Pizotyline Malate] | 12.5% |
| O=C(O)COCCN1CCN([C@H](c2ccccc2)c2ccc(Cl)cc2)CC1 [Levocetirizine Dihydrochloride] | 7.41% |
| O=C1[C@H](CC[C@H](O)c2ccc(F)cc2)[C@@H](c2ccc(O)cc2)N1c1ccc(F)cc1 [Ezetimibe] | 88.9% |
| O=S(=O)(O)c1cc(I)c(O)c2ncccc12 [Chiniofon] | 2.27% |
| CC(O)(P(=O)(O)O)P(=O)(O)O [Etidronate Disodium] | 2.86% |
| OCc1ccccn1 [Piconol] | 8.11% |
| COc1ccc(CN2CCN(C(c3ccc(F)cc3)c3ccc(F)cc3)CC2)c(OC)c1OC [lomerizine] | 47.8% |
| COc1ccc(C(=O)c2ccccc2O)c(O)c1 [Dioxybenzone] | 100% |
| CC1CCCC(C)N1 (stereo not drawn) [Nanofin] | 0% |
| Cc1cnc(C(=O)O)c[n+]1[O-] [Acipimox] | 5.88% |
| CC(=O)Nc1cccc(O)c1 [3-acetamidophenol] | 0% |
| O=C(O)C1(C(=O)O)CCC1.[NH2-].[NH2-].[Pt+2] [Carboplatin] | 12.2% |
| CN[C@@H]1[C@H](O[C@H]2[C@H](O[C@H]3[C@H](O)[C@@H](O)[C@H](NC(=N)N)[C@@H](O)[C@@H]3NC(=N)N)O[C@@H](C)[C@]2(O)CO)O[C@@H](CO)[C@H](O)[C@H]1O [Dihydrostreptomycin Sulfate] | 29.2% |
| NCc1ccc(S(N)(=O)=O)cc1 [Mafenide Hydrochloride] | 1.75% |
| CC/C(=C(\c1ccccc1)c1ccc(OCCN(C)C)cc1)c1ccccc1 [tamoxifen] | 100% |
| C=C(c1ccc(C(=O)O)cc1)c1cc2c(cc1C)C(C)(C)CCC2(C)C [Bexarotene] | 4.65% |
| C#C[C@]1(O)CC[C@H]2[C@@H]3CCC4=C(CCC(=O)C4)[C@H]3CC[C@@]21C [Norethynodrel] | 13% |
| CC(C)(C)NCC(O)c1cc(O)cc(O)c1 (stereo not drawn) [Terbutaline] | 3.03% |
| CCOc1ccc(NC(C)=O)cc1 [Phenacetin] | 2.56% |
| COc1cc2ncnc(Nc3ccc(F)c(Cl)c3)c2cc1OCCCN1CCOCC1 [Gefitinib] | 100% |
| CCCCC[C@H](O)/C=C/[C@H]1[C@H](O)CC(=O)[C@@H]1CCCCCCC(=O)O [Alprostadil] | 6.25% |
| CC(=O)Nc1ccc(C(=O)O)cc1 [Acedoben] | 7.69% |

| SMILES | degeneracy |
| --- | --- |
| O=C(O)c1ccccc1 [Benzoic Acid] | 19.4% |
| Cc1nc(Nc2ncc(C(=O)Nc3c(C)cccc3Cl)s2)cc(N2CCN(CCO)CC2)n1 [Dasatinib] | 0% |
| CCN(CCO)CCCC(C)Nc1ccnc2cc(Cl)ccc12 (stereo not drawn) [Hydroxychloroquine Sulfate] | 4.26% |
| COc1ccc(CC2c3cc(OC)c(OC)cc3CC[N+]2(C)CCC(=O)OCCCCCOC(=O)CC[N+]2(C)CCc3cc(OC)c(OC)cc3C2Cc2ccc(OC)c(OC)c2)cc1OC (stereo not drawn) [Atracurium Besylate] | 11.1% |
| CC(C)(C)c1ccc(C(O)CCCN2CCC(C(O)(c3ccccc3)c3ccccc3)CC2)cc1 (stereo not drawn) [terfenadine] | 100% |
| CCCCN1CCCCC1C(=O)Nc1c(C)cccc1C (stereo not drawn) [Bupivacaine Hydrochloride] | 15.2% |
| CO/N=C1\C[C@]2(C[C@@H]3C[C@@H](C/C=C(\C)C[C@@H](C)/C=C/C=C4\CO[C@@H]5[C@H](O)C(C)=C[C@@H](C(=O)O3)[C@]45O)O2)O[C@H](/C(C)=C/C(C)C)[C@H]1C [moxidectin] | 100% |
| CCOC(=O)NNc1nncc2ccccc12 [Todralazine Hydrochloride] | 66.7% |
| Nc1ccc(S(=O)(=O)Nc2ccccn2)cc1 [Sulfapyridine] | 6.06% |
| CO[C@H]1C[C@H](O[C@H]2[C@H](C)[C@@H](O[C@@H]3O[C@H](C)C[C@H](N(C)C)[C@H]3O)[C@@H](C)C[C@@]3(CO3)C(=O)[C@H](C)[C@@H](O)[C@@H](C)[C@@H](C)OC(=O)[C@@H]2C)O[C@@H](C)[C@@H]1O [Oleandomycin Phosphate] | 7.69% |
| O=c1[nH]c(=O)c2ccccc2o1 [Carsalam] | 0% |
| Nc1ccn([C@@H]2O[C@H](CO)[C@@H](O)[C@@H]2O)c(=O)n1 [Cytarabine] | 14.3% |
| O=c1ccc2ccccc2o1 [Coumarin] | 5.41% |
| O=c1[nH]cnc2c1ncn2[C@@H]1O[C@H](CO)[C@@H](O)[C@H]1O [Inosine] | 11.5% |
| CCOc1ccccc1OC(c1ccccc1)C1CNCCO1 (stereo not drawn) [Reboxetine Mesylate] | 12.5% |
| COc1cc([C@@H]2c3cc4c(cc3[C@@H](O[C@@H]3O[C@@H]5CO[C@@H](c6cccs6)O[C@H]5[C@H](O)[C@H]3O)[C@H]3COC(=O)[C@H]23)OCO4)cc(OC)c1O [Teniposide] | 4% |
| CN(Cc1cnc2nc(N)nc(N)c2n1)c1ccc(C(=O)N[C@@H](CCC(=O)O)C(=O)O)cc1 [Methotrexate] | 4.26% |
| N[C@@H](Cc1ccc(O)cc1)C(=O)O [Tyrosine] | 6.45% |
| CCN(CC)CCNc1ccc(CO)c2sc3ccccc3c(=O)c12 [hycanthone] | 100% |
| CN(C)c1ccc(O)c2c1C[C@H]1C[C@H]3[C@H](N(C)C)C(O)=C(C(N)=O)C(=O)[C@@]3(O)C(O)=C1C2=O [Minocycline Hydrochloride] | 4% |
| Cc1ccsc1/C=C/C1=NCCCN1C [Morantel Citrate] | 0% |
| CCCCCCCCCCCCCCCCOP(=O)([O-])OCC[N+](C)(C)C [Miltefosine] | 100% |
| C[N+](C)(C)CCOC(=O)CCC(=O)OCC[N+](C)(C)C [Succinylcholine Chloride] | 2.78% |
| C[C@]12CC[C@@H]3c4ccc(OS(=O)(=O)O)cc4CC[C@H]3[C@@H]1CCC2=O [Estropipate] | 6.25% |
| Cc1ccc(S(=O)(=O)NC(=O)NN2CCCCCC2)cc1 [Tolazamide] | 7.69% |
| CC(C)(C)CC(C)(C)c1ccc(O)c(Cc2ccc(Cl)cc2Cl)c1 [clofoctol] | 100% |
